Results taken from patent US20160122386A1, “V1A RECEPTOR AGONISTS” (FERRING B.V., priority 2014, published 2016).

Chains of the proteins cited; added tags and fusions are not shown.
UniProt P37288, whole entry: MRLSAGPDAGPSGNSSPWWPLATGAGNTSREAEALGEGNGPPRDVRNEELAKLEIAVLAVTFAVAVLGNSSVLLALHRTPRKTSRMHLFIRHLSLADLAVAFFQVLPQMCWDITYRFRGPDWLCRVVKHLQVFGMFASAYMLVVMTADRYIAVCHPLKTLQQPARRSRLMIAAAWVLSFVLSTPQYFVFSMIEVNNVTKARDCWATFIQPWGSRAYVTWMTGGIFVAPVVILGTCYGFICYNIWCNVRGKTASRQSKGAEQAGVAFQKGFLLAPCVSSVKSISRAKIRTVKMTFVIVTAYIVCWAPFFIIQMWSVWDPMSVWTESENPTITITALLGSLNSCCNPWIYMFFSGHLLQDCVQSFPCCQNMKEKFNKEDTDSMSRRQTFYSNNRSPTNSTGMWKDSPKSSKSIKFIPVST

Target: T1, human V1aR (Homo sapiens, UniProt P37288)
T1 construct: expressed in transfected cells
Experiment: Agonist activity at vasopressin V1a receptors, cell-based FLIPR calcium assay
Conditions: read-out: Efficacy Avg. (%)
Protocol: Efficacy (% MPE) is also determined as the percentage of maximal possible effect. This agonist assay utilizes cells from a stable cell line (HEK-flpin) expressing the vasopressin V1a receptor. Intracellular calcium increase in response to agonist is measured through real-time fluorescence of an intracellular calcium-sensitive dye. Cells are exposed to varying concentrations of test agonist compounds whereupon release of intracellular calcium is measured to determine the agonist potency and efficacy.
The cell line stably expresses the lacZ-Zeocin™ fusion gene and is designed for use with the Flp-In™ expression vector containing the gene of interest and the Flp recombinase expression plasmid, pOG44. The cell line contains a single integrated Flp Recombination Target (FRT) site from pFRT/lacZeo or pFRT/lacZeo2. […]
The cell plates were transferred to FLIPR Tetra, along with a 384 well V-bottom plate pre-loaded with half-log concentrations of test compounds at 10× final test concentrations. […] A baseline reading was taken at 1-second (s) intervals for 5s followed by the addition of 5 μl of 10× compounds (test, reference, or Blank). The agonist-induced fluorescence signal was then measured for 180 s with initial 120 readings at 1-second intervals followed by 20 readings at 3-second intervals. […]

**Q.** How did the Emax turn out when `CC[C@H](C)[C@@H]1NC(=O)[C@H](Cc2ccccc2)NC(=O)[C@@H](N)CSSC[C@@H](C(=O)N2CCC[C@H]2C(=O)N[C@@H](CCNC(=O)[C@@H](N)CCCCNC(=O)[C@H](CCCCNC(C)=O)NC(=O)CC[C@H](NC(=O)[C@H](CCCNC(=N)N)NC(=O)[C@@H]2CCCN2C(=O)[C@H](C)NC(=O)[C@H](CC(N)=O)NC(=O)[C@H](CCC(N)=O)NC(=O)[C@H](Cc2ccccc2)NC(=O)[C@@H](Cc2ccc(OC)cc2)NC(=O)Cc2ccccc2)C(N)=O)C(=O)NCC(N)=O)NC(=O)[C@H](CC(N)=O)NC(=O)[C@H](CCC(N)=O)NC1=O` [Compound 42] was run?
**A.** The Emax was 37%.
